Patent US20250073226A1, “USE OF OPIOID FOR TREATMENT OF AUTISM SPECTRUM DISORDERS” (priority 2021, published 2025)
Values joined by “and” are separate entries in the source; they are usually repeats but may differ in a detail not shown here. Equal entries are not always repeated.

Experiments:
[1] = Pharmacokinetic: drug concentrations in plasma by LC-MS after subcutaneous administration; settings: ICR mice; for concentration at 15 min / concentration at 30 min / concentration at 60 min / concentration at 90 min: ICR, mouse, plasma, subcutaneous; for concentration at 15 min: Plasma concentration Morphine After 15 minutes; for concentration at 30 min: Plasma concentration Morphine After 30 minutes; for concentration at 60 min: Plasma concentration Morphine After 60 minutes; for concentration at 90 min: Plasma concentration Morphine After 90 minutes
[2] = test system: valproic acid model mice (VPA model); assay: Social interaction test in valproic acid model mice; format: in vivo, ICR mice; settings: single s.c. dose
From the text: Since ASD-like symptoms such as social impairment and cognitive dysfunction are observed, it is one of the most widely used the ASD model mice.
As the sociality evaluation, a method called a social interaction test was used. In the Social Interaction Test, two mice are placed in one cage, and how many seconds a target mouse (Test mouse) performs sniffing, which is social behavior, on another mouse (Intruder mouse) is quantified.

[3] = morphine hydrochloride 0.03 mg/kg s.c., individual animals
[4] = morphine hydrochloride 0.1 mg/kg s.c., individual animals
[5] = morphine hydrochloride 3 mg/kg s.c., individual animals
[6] = 0.03 mg/kg, morphine hydrochloride 0.03 mg/kg s.c., Average value
[7] = 0.03 mg/kg, morphine hydrochloride 0.03 mg/kg s.c., individual animals
[8] = 0.1 mg/kg, morphine hydrochloride 0.1 mg/kg s.c., Average value
[9] = 0.1 mg/kg, morphine hydrochloride 0.1 mg/kg s.c., individual animals
[10] = 3 mg/kg, morphine hydrochloride 3 mg/kg s.c., Average value
[11] = 3 mg/kg, morphine hydrochloride 3 mg/kg s.c., individual animals

SMILES: CN1CC[C@]23c4c5ccc(O)c4O[C@H]2[C@@H](O)C=C[C@H]3[C@H]1C5 [morphine]
- Plasma concentration Morphine After 15 minutes [1, 3]: 1.74 ng/mL and 1.9 ng/mL
- Plasma concentration Morphine After 30 minutes [1, 3]: 0.993 ng/mL and 0.966 ng/mL
- Plasma concentration Morphine After 60 minutes [1, 3]: 0.606 ng/mL and 0 ng/mL (2×)
- Plasma concentration Morphine After 90 minutes [1, 3]: 0 ng/mL
- Plasma concentration Morphine After 15 minutes [1, 4]: 5.62 ng/mL and 8.85 ng/mL
- Plasma concentration Morphine After 30 minutes [1, 4]: 2.99 ng/mL and 2.47 ng/mL
- Plasma concentration Morphine After 60 minutes [1, 4]: 0 ng/mL and 0.579 ng/mL
- Plasma concentration Morphine After 90 minutes [1, 4]: 0 ng/mL
- Plasma concentration Morphine After 15 minutes [1, 5]: 442 ng/mL and 361 ng/mL
- Plasma concentration Morphine After 30 minutes [1, 5]: 241 ng/mL and 123 ng/mL and 105 ng/mL
- Plasma concentration Morphine After 60 minutes [1, 5]: 74.1 ng/mL and 70 ng/mL
- Plasma concentration Morphine After 90 minutes [1, 5]: 16 ng/mL and 16.9 ng/mL and 32.2 ng/mL
- concentration at 15 min [1, 6]: 2.33 ng/mL
- concentration at 15 min [1, 7]: 3.36 ng/mL
- concentration at 30 min [1, 6]: 1.12 ng/mL
- concentration at 30 min [1, 7]: 1.39 ng/mL
- concentration at 60 min [1, 6]: 0.202 ng/mL
- concentration at 90 min [1, 6]: 0 ng/mL
- concentration at 90 min [1, 7]: 0 ng/mL
- concentration at 15 min [1, 8]: 7.37 ng/mL
- concentration at 15 min [1, 9]: 7.65 ng/mL
- concentration at 30 min [1, 8]: 3.02 ng/mL
- concentration at 30 min [1, 9]: 3.61 ng/mL
- concentration at 60 min ([1]; 0.1 mg/kg, morphine hydrochloride 0.1 mg/kg s.c., Average value (N = 3 excluded as outlier)): 0.29 ng/mL
- concentration at 90 min [1, 8]: 0 ng/mL
- concentration at 90 min [1, 9]: 0 ng/mL
- concentration at 15 min [1, 10]: 362 ng/mL
- concentration at 15 min [1, 11]: 284 ng/mL
- concentration at 30 min [1, 10]: 156 ng/mL
- concentration at 60 min [1, 10]: 71.7 ng/mL
- concentration at 60 min [1, 11]: 71 ng/mL
- concentration at 90 min [1, 10]: 21.7 ng/mL
- improvement effect in social impairment at a high dose ([2]; high dose close to the analgesic dose): reduced the improvement effect in social impairment
- improvement effect in social impairment ([2]; low dose of less than 1/10 of the dose of maximum analgesic effect, 20 minutes from 1 hour after administration): significant improvement effect in social impairment
